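Luminescence from an EWS-FLI1 target-promoter (NR0B1) reporter, set against a CMV-promoter reporter, two days after silencing single genes in TC32 Ewing sarcoma cells. Each siRNA was applied at 20 nM. A z-score of the log NR0B1-over-CMV signal, less the median of siRNAs with the same seed; more negative means a stronger specific loss of the NR0B1 reporter.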

This is part of the screen; most of the strongest results are not listed here. Sequences are the guide (antisense) strand, without overhang.

{"sirna": "UAUUGAUACAUAAAUAAGC", "gene": "ADRB1", "seed-corrected z-score": "-0.3496"}
{"sirna": "UUAGGGAUAAUCAAAAUCG", "gene": "HIVEP2", "seed-corrected z-score": "-0.8196"}
{"sirna": "UUUAGUACCUGAGGGAAGG", "gene": "ERI1", "seed-corrected z-score": "-0.2891"}
{"sirna": "AAUAUAGCCUUGUAGUUGC", "gene": "FRK", "seed-corrected z-score": "-0.1747"}
{"sirna": "AAAAGUGAUUGAUCUCUCG", "gene": "OR2T2", "seed-corrected z-score": "0.01481"}
{"sirna": "AAGUCUGUGACGGUGAUCG", "gene": "PCDHB14", "seed-corrected z-score": "-1.519"}
{"sirna": "UGUACUGCGAUGAAGGCCG", "gene": "SLC7A5", "seed-corrected z-score": "0.5282"}
{"sirna": "UUUCGUUCCUCCGUUUCGC", "gene": "DDX31", "seed-corrected z-score": "0.3757"}
{"sirna": "UUUGUCCAGAGAGAGUUUG", "gene": "STOML2", "seed-corrected z-score": "-0.01538"}
{"sirna": "UUUCAGGCUAGAUCGAUCC", "gene": "KY", "seed-corrected z-score": "0.5955"}
{"sirna": "UAGGUAAUCGUUGAGGCCC", "gene": "EFNA4", "seed-corrected z-score": "0.5053"}
{"sirna": "UUUCGAAUCUCAGCUGCCG", "gene": "CASP14", "seed-corrected z-score": "-0.5868"}
{"sirna": "UUUAAAAUUAACAUGCUUC", "gene": "RPS16P10", "seed-corrected z-score": "1.431"}
{"sirna": "UUCGCAUCAACUGCAUCUC", "gene": "LAMA2", "seed-corrected z-score": "-0.5921"}
{"sirna": "UUCAUUAUUAAGGAGGUCU", "gene": "FOXP1", "seed-corrected z-score": "-0.278"}
{"sirna": "UCAGGUAUAUGAUUUUCUG", "gene": "PSME2", "seed-corrected z-score": "-0.04273"}
{"sirna": "UAGGCUUACAUAGAUGAUG", "gene": "PRKD1", "seed-corrected z-score": "-0.05294"}
{"sirna": "UUCACUCUCAGAGUCGCUC", "gene": "IWS1", "seed-corrected z-score": "-0.437"}
{"sirna": "AAGAUGAUGCGUAAAAGUC", "gene": "PDCD7", "seed-corrected z-score": "0.4887"}
{"sirna": "UAAAUUCAUAGACUUGACC", "gene": "COL28A1", "seed-corrected z-score": "0.592"}
{"sirna": "UAUCCAUUCUGCGACAUGG", "gene": "SLC4A11", "seed-corrected z-score": "0.1579"}
{"sirna": "UUGUAGUACACCAUCGUUG", "gene": "ABCC9", "seed-corrected z-score": "-1.019"}
{"sirna": "UUUGUAGUCACCGGAAUGG", "gene": "CRYBA4", "seed-corrected z-score": "0.1554"}
{"sirna": "UCUCAUAUAAGGAGGGUUG", "gene": "TMEM35", "seed-corrected z-score": "0.1026"}
{"sirna": "UGCAUUCCUCGAUCUGAGC", "gene": "TCEA2", "seed-corrected z-score": "-0.7621"}
{"sirna": "UCUCGUUUGCCUUUUUCUG", "gene": "SERF2", "seed-corrected z-score": "1.051"}
{"sirna": "UAAGUUCUGAGUAACGACG", "gene": "ZFP30", "seed-corrected z-score": "-0.07211"}
{"sirna": "UCACGAAUAGUCUCCAGGC", "gene": "PRICKLE4", "seed-corrected z-score": "-0.09861"}
{"sirna": "UGGAUAUCCUCUACUGUAU", "gene": "C9orf170", "seed-corrected z-score": "1.097"}
{"sirna": "AUCUCAAUAACCCUCAUCC", "gene": "GOLGA7B", "seed-corrected z-score": "-0.5035"}
{"sirna": "UGUAAUCUAAUUAAUCUCC", "gene": "NCMAP", "seed-corrected z-score": "-0.6565"}
{"sirna": "UUGAUUGCUGAAUCUGUGC", "gene": "CCDC91", "seed-corrected z-score": "0.1877"}
{"sirna": "UACUUCGACAGUCAUAACC", "gene": "EML5", "seed-corrected z-score": "0.1577"}
{"sirna": "UAACAAUAAGGGACCCUAC", "gene": "PCDHB9", "seed-corrected z-score": "0.4035"}
{"sirna": "AAUCGGUUUACAAUUGGUG", "gene": "FBXO38", "seed-corrected z-score": "0.08682"}
{"sirna": "UGAGCAUAUGCUGUGGAGC", "gene": "NFIL3", "seed-corrected z-score": "-0.7325"}
{"sirna": "UCUGUUCGGAGUUCAGUCU", "gene": "SSH3", "seed-corrected z-score": "-0.7628"}
{"sirna": "UUUCGCUCCAUCUCACGCU", "gene": "ACAP3", "seed-corrected z-score": "-0.09559"}
{"sirna": "UUGCUAUUGAAGAAUGAGG", "gene": "EXTL2", "seed-corrected z-score": "0.05045"}
{"sirna": "UCCUUGAAAACUUAAGCCC", "gene": "COL4A1", "seed-corrected z-score": "0.05283"}
{"sirna": "AUACUGUCCGUGUUUGUCC", "gene": "EPHB4", "seed-corrected z-score": "-1.587"}
{"sirna": "UUAAUAGGUGAUGUAGGUG", "gene": "PPP1R12A", "seed-corrected z-score": "0.4679"}
{"sirna": "UGAGCUCAUAGUCAAGCGG", "gene": "TTC7A", "seed-corrected z-score": "0.0133"}
{"sirna": "ACACGAGCAAGAAUAACAG", "gene": "LEPROT", "seed-corrected z-score": "0.07923"}

Data taken from PubChem BioAssay AID1159506, deposited by NCATS (2015).